# Measured values from the supplement of paper PMC8728848.
# The other results are listed elsewhere or left out.
# B1: R2-fiber (Pseudomonas aeruginosa), Q9S576 (protein)
# chain: HHHHHHKVAKDLVVSLAYQVRTEDGVLVDESPVSAPLDYLHGHGSLISGLETALEGHEVGDKFDVAVGANDAYGQYDENLVQRVPKDVFMGVDELQVGMRFLAETDQGPVPVEITAVEDDHVVVDGNHMLAGQNLKFNVEVVAIREATEEELAHGHVHGAHDHHHDHDHDGCCGGHGHDHGHEHGGEGCCGGKGNGGCGCHENLYFQGVTAGMALAATDIPGLDASKLVSGVLAEQRLPVFARGLATAVSNSSDPNTATVPLMLTNHANGPVAGRYFYIQSMFYPDQNGNASQIATSYNATSEMYVRVSYAANPSIREWLPWQRCDIGGSFTKEADGELPGGVNLDSMVTSGWWSQSFTAQAASGANYPIVRAGLLHVYAASSNFIYQTYQAYDGESFYFRCRHSNTWFPWRRMWHGGDFNPSDYLLKSGFYWNALPGKPATFPPSAHNHDVGQLTSGILPLARGGVGSNTAAGARSTIGAGVPATASLGASGWWRDNDTGLIRQWGQVTCPADADASITFPIPFPTLCLGGYANQTSAFHPGTDASTGFRGATTTTAVIRNGYFAQAVLSWEAFGR
# Legend:
# Experiment in all cases: glycan array binding signal (z-score within array); higher = stronger binding
# Details in all cases: glycan notation: IUPAC condensed, linker removed
# [1] = target: Fuc(a1-2)[GalNAc(b1-3)]Gal
# In short: (§1)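 Glycan array data were curated from 3228 arrays in the Consortium for Functional Glycomics database and kept only where the protein sequence was available. Glycan names were converted to IUPAC-condensed notation, and columns mapping to the same glycan were averaged. The binding signal is a within-array Z-score, averaged across arrays of the same protein sequence at different concentrations or buffers and across linkers. Negative Z-scores can be read as non-binding.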
# Fuc(a1-3)GlcNAc = target: Fuc(a1-3)GlcNAc
# In short: as §1
# [2] = target: Fuc(a1-3)[Gal(b1-4)]Glc6S
# In short: as §1
# [3] = target: Fuc(a1-3)[Gal(b1-4)]GlcNAc
# In short: as §1
# [4] = target: Fuc(a1-3)[Gal(b1-4)]GlcNAc(b1-2)Man
# In short: as §1
# [5] = target: Fuc(a1-3)[Gal(b1-4)]GlcNAc(b1-2)Man(a1-3)[Fuc(a1-3)[Gal(b1-4)]GlcNAc(b1-2)Man(a1-6)]Man(b1-4)GlcNAc(b1-4)GlcNAc
# In short: as §1
# [6] = target: Fuc(a1-3)[Gal(b1-4)]GlcNAc(b1-2)Man(a1-3)[Fuc(a1-3)[Gal(b1-4)]GlcNAc(b1-2)Man(a1-6)]Man(b1-4)GlcNAc(b1-4)[Fuc(a1-6)]GlcNAc
# In short: as §1
# [7] = target: Fuc(a1-3)[Gal(b1-4)]GlcNAc(b1-3)Gal(b1-3)[Fuc(a1-4)]GlcNAc
# In short: as §1
# [8] = target: Fuc(a1-3)[Gal(b1-4)]GlcNAc(b1-3)Gal(b1-4)[Fuc(a1-3)]GlcNAc
# In short: as §1
# [9] = target: Fuc(a1-3)[Gal(b1-4)]GlcNAc(b1-3)Gal(b1-4)[Fuc(a1-3)]GlcNAc(b1-3)Gal(b1-4)[Fuc(a1-3)]GlcNAc
# In short: as §1
# [10] = target: Fuc(a1-3)[Gal(b1-4)]GlcNAc(b1-3)GalNAc
# In short: as §1
# [11] = target: Fuc(a1-3)[Gal(b1-4)]GlcNAc(b1-6)GalNAc
# In short: as §1
# [12] = target: Fuc(a1-3)[Gal(b1-4)]GlcNAc(b1-6)[Gal(b1-3)GlcNAc(b1-3)]Gal(b1-4)Glc
# In short: as §1
# [13] = target: Fuc(a1-3)[Gal(b1-4)]GlcNAc6S
# In short: as §1
# [14] = target: Fuc(a1-3)[Gal3S(b1-4)]Glc
# In short: as §1
# [15] = target: Fuc(a1-3)[Gal3S(b1-4)]GlcNAc
# In short: as §1
# [16] = target: Fuc(a1-3)[Gal3S(b1-4)]GlcNAc6S
# In short: as §1
# [17] = target: Fuc(a1-3)[GalNAc(b1-4)]GlcNAc
# In short: as §1
# [18] = target: Fuc(a1-3)[GalNAc(b1-4)]GlcNAc6S
# In short: as §1
# Fuc(a1-4)GlcNAc = target: Fuc(a1-4)GlcNAc
# In short: as §1
# Fuc(b1-3)GlcNAc = target: Fuc(b1-3)GlcNAc
# In short: as §1
# Gal(a1-2)Gal = target: Gal(a1-2)Gal
# In short: as §1
# Gal(a1-3)Gal = target: Gal(a1-3)Gal
# In short: as §1
# Gal(a1-3)Gal(b1-3)GlcNAc = target: Gal(a1-3)Gal(b1-3)GlcNAc
# In short: as §1
# [19] = target: Gal(a1-3)Gal(b1-3)GlcNAc(b1-2)Man
# In short: as §1
# [20] = target: Gal(a1-3)Gal(b1-3)GlcNAc(b1-2)Man(a1-3)[Gal(a1-3)Gal(b1-3)GlcNAc(b1-2)Man(a1-6)]Man(b1-4)GlcNAc(b1-4)GlcNAc
# In short: as §1
# [21] = target: Gal(a1-3)Gal(b1-3)GlcNAc(b1-3)GalNAc
# In short: as §1
# [22] = target: Gal(a1-3)Gal(b1-3)GlcNAc(b1-6)GalNAc
# In short: as §1
# [23] = target: Gal(a1-3)Gal(b1-3)[Fuc(a1-4)]GlcNAc(b1-2)Man(a1-3)[Gal(a1-3)Gal(b1-3)[Fuc(a1-4)]GlcNAc(b1-2)Man(a1-6)]Man(b1-4)GlcNAc(b1-4)GlcNAc
# In short: as §1
# Gal(a1-3)Gal(b1-4)Glc = target: Gal(a1-3)Gal(b1-4)Glc
# In short: as §1
# Gal(a1-3)Gal(b1-4)GlcNAc = target: Gal(a1-3)Gal(b1-4)GlcNAc
# In short: as §1
# [24] = target: Gal(a1-3)Gal(b1-4)GlcNAc(b1-2)Man
# In short: as §1
# [25] = target: Gal(a1-3)Gal(b1-4)GlcNAc(b1-2)Man(a1-3)[Gal(a1-3)Gal(b1-4)GlcNAc(b1-2)Man(a1-6)]Man(b1-4)GlcNAc(b1-4)GlcNAc
# In short: as §1
# [26] = target: Gal(a1-3)Gal(b1-4)GlcNAc(b1-3)GalNAc
# In short: as §1
# [27] = target: Gal(a1-3)Gal(b1-4)GlcNAc(b1-6)GalNAc
# In short: as §1
# [28] = target: Gal(a1-3)Gal(b1-4)[Fuc(a1-3)]GlcNAc
# In short: as §1
# [29] = target: Gal(a1-3)Gal(b1-4)[Fuc(a1-3)]GlcNAc(b1-2)Man(a1-3)[Gal(a1-3)Gal(b1-4)[Fuc(a1-3)]GlcNAc(b1-2)Man(a1-6)]Man(b1-4)GlcNAc(b1-4)GlcNAc
# In short: as §1
# Gal(a1-3)GalNAc = target: Gal(a1-3)GalNAc
# In short: as §1
# [30] = target: Gal(a1-3)[Gal(a1-4)]Gal(b1-4)GlcNAc
# In short: as §1
# [31] = target: Gal(a1-4)Gal(b1-3)GlcNAc(b1-2)Man(a1-3)[Gal(a1-4)Gal(b1-3)GlcNAc(b1-2)Man(a1-6)]Man(b1-4)GlcNAc(b1-4)GlcNAc
# In short: as §1
# Gal(a1-4)Gal(b1-4)Glc = target: Gal(a1-4)Gal(b1-4)Glc
# In short: as §1
# Gal(a1-4)Gal(b1-4)GlcNAc = target: Gal(a1-4)Gal(b1-4)GlcNAc
# In short: as §1
# [32] = target: Gal(a1-4)Gal(b1-4)GlcNAc(b1-2)Man(a1-3)[Gal(a1-4)Gal(b1-4)GlcNAc(b1-2)Man(a1-6)]Man(b1-4)GlcNAc(b1-4)GlcNAc
# In short: as §1
# [33] = target: Gal(a1-4)Gal(b1-4)GlcNAc(b1-3)Gal(b1-4)Glc
# In short: as §1
# Gal(a1-4)GlcNAc = target: Gal(a1-4)GlcNAc
# In short: as §1
# Gal(a1-6)Glc = target: Gal(a1-6)Glc
# In short: as §1
# Gal(b1-2)Gal = target: Gal(b1-2)Gal
# In short: as §1
# Gal(b1-3)Gal = target: Gal(b1-3)Gal
# In short: as §1
# Gal(b1-3)Gal(b1-4)GlcNAc = target: Gal(b1-3)Gal(b1-4)GlcNAc
# In short: as §1
# Gal(b1-3)GalNAc = target: Gal(b1-3)GalNAc
# In short: as §1
# [34] = target: Gal(b1-3)GalNAc(a1-3)[Fuc(a1-2)]Gal(b1-4)Glc
# In short: as §1
# [35] = target: Gal(b1-3)GalNAc(a1-3)[Fuc(a1-2)]Gal(b1-4)GlcNAc
# In short: as §1
# Gal(b1-3)GalNAc(b1-3)Gal = target: Gal(b1-3)GalNAc(b1-3)Gal
# In short: as §1
# [36] = target: Gal(b1-3)GalNAc(b1-3)Gal(a1-4)Gal(b1-4)Glc
# In short: as §1
# [37] = target: Gal(b1-3)GalNAc(b1-4)Gal(b1-4)Glc
# In short: as §1
# [38] = target: Gal(b1-3)GalNAc(b1-4)[Neu5Ac(a2-3)]Gal(b1-4)Glc
# In short: as §1
# Gal(b1-3)GlcNAc = target: Gal(b1-3)GlcNAc
# In short: as §1
# [39] = target: Gal(b1-3)GlcNAc(a1-3)Gal(b1-4)GlcNAc
# In short: as §1
# [40] = target: Gal(b1-3)GlcNAc(a1-6)Gal(b1-4)GlcNAc
# In short: as §1
# Gal(b1-3)GlcNAc(b1-2)Man = target: Gal(b1-3)GlcNAc(b1-2)Man
# In short: as §1
binder,measurement,setting,value
B1,glycan array binding signal (z-score),[1],-0.256
same,glycan array binding signal (z-score),Fuc(a1-3)GlcNAc,-0.65
same,glycan array binding signal (z-score),[2],0.115
same,glycan array binding signal (z-score),[3],0.049
same,glycan array binding signal (z-score),[4],0.593
same,glycan array binding signal (z-score),[5],-0.104
same,glycan array binding signal (z-score),[6],0.47
same,glycan array binding signal (z-score),[7],0
same,glycan array binding signal (z-score),[8],-0.018
same,glycan array binding signal (z-score),[9],0.417
same,glycan array binding signal (z-score),[10],-0.536
same,glycan array binding signal (z-score),[11],2.09
same,glycan array binding signal (z-score),[12],-1.36
same,glycan array binding signal (z-score),[13],-0.596
same,glycan array binding signal (z-score),[14],1.21
same,glycan array binding signal (z-score),[15],-0.646
same,glycan array binding signal (z-score),[16],1.55
same,glycan array binding signal (z-score),[17],0.107
same,glycan array binding signal (z-score),[18],-0.098
same,glycan array binding signal (z-score),Fuc(a1-4)GlcNAc,0.08
same,glycan array binding signal (z-score),Fuc(b1-3)GlcNAc,0.241
same,glycan array binding signal (z-score),Gal(a1-2)Gal,-0.187
same,glycan array binding signal (z-score),Gal(a1-3)Gal,0.366
same,glycan array binding signal (z-score),Gal(a1-3)Gal(b1-3)GlcNAc,-0.628
same,glycan array binding signal (z-score),[19],-0.284
same,glycan array binding signal (z-score),[20],0.346
same,glycan array binding signal (z-score),[21],0.372
same,glycan array binding signal (z-score),[22],0.045
same,glycan array binding signal (z-score),[23],0.078
same,glycan array binding signal (z-score),Gal(a1-3)Gal(b1-4)Glc,-0.505
same,glycan array binding signal (z-score),Gal(a1-3)Gal(b1-4)GlcNAc,-0.291
same,glycan array binding signal (z-score),[24],0.037
same,glycan array binding signal (z-score),[25],1
same,glycan array binding signal (z-score),[26],-0.829
same,glycan array binding signal (z-score),[27],-0.437
same,glycan array binding signal (z-score),[28],-0.968
same,glycan array binding signal (z-score),[29],0.638
same,glycan array binding signal (z-score),Gal(a1-3)GalNAc,-0.479
same,glycan array binding signal (z-score),[30],-0.139
same,glycan array binding signal (z-score),[31],0.322
same,glycan array binding signal (z-score),Gal(a1-4)Gal(b1-4)Glc,-0.036
same,glycan array binding signal (z-score),Gal(a1-4)Gal(b1-4)GlcNAc,-0.114
same,glycan array binding signal (z-score),[32],0.239
same,glycan array binding signal (z-score),[33],-0.891
same,glycan array binding signal (z-score),Gal(a1-4)GlcNAc,-0.479
same,glycan array binding signal (z-score),Gal(a1-6)Glc,-0.42
same,glycan array binding signal (z-score),Gal(b1-2)Gal,0.015
same,glycan array binding signal (z-score),Gal(b1-3)Gal,-0.094
same,glycan array binding signal (z-score),Gal(b1-3)Gal(b1-4)GlcNAc,-0.114
same,glycan array binding signal (z-score),Gal(b1-3)GalNAc,-0.235
same,glycan array binding signal (z-score),[34],-0.584
same,glycan array binding signal (z-score),[35],-0.391
same,glycan array binding signal (z-score),Gal(b1-3)GalNAc(b1-3)Gal,-1.13
same,glycan array binding signal (z-score),[36],-0.931
same,glycan array binding signal (z-score),[37],-0.446
same,glycan array binding signal (z-score),[38],-0.537
same,glycan array binding signal (z-score),Gal(b1-3)GlcNAc,-0.177
same,glycan array binding signal (z-score),[39],-1.35
same,glycan array binding signal (z-score),[40],0.397
same,glycan array binding signal (z-score),Gal(b1-3)GlcNAc(b1-2)Man,0.298

# Looked up one by one from the entries so far:
binder,measurement,setting,value
B1,glycan array binding signal (z-score),[19],-0.284
same,glycan array binding signal (z-score),Fuc(b1-3)GlcNAc,0.241
same,glycan array binding signal (z-score),Gal(a1-3)Gal(b1-3)GlcNAc,-0.628
same,glycan array binding signal (z-score),[2],0.115
same,glycan array binding signal (z-score),[36],-0.931
